In PubChem BioAssay AID1671190 (National Center for Advancing Translational Sciences (NCATS), 2021):
“And” between values parts separate entries of the source, which are not always exact repeats. Equal values may be shown once. Among all 580,000 compounds or so, about 6,100 (1.1%) were called active. The inconclusive results got no clear call from the source; some entries with a clear call stand among them for comparison. The call rests on the fitted dose curve; in most records, active means well fitted inhibition curve with a large enough effect; inconclusive means small, poorly fitted or top-dose-only effect, or another doubt; inactive means no such curve, though single readings can be large or run the other way. A potency beside an inconclusive call is a rough fit, not a confirmed value.

By UniProt entry, the sequences of proteins in these tests, tags left out. Where a name states a change or a piece, a line headed by the entry shows the natural chain unless it says otherwise.
UniProt P18054: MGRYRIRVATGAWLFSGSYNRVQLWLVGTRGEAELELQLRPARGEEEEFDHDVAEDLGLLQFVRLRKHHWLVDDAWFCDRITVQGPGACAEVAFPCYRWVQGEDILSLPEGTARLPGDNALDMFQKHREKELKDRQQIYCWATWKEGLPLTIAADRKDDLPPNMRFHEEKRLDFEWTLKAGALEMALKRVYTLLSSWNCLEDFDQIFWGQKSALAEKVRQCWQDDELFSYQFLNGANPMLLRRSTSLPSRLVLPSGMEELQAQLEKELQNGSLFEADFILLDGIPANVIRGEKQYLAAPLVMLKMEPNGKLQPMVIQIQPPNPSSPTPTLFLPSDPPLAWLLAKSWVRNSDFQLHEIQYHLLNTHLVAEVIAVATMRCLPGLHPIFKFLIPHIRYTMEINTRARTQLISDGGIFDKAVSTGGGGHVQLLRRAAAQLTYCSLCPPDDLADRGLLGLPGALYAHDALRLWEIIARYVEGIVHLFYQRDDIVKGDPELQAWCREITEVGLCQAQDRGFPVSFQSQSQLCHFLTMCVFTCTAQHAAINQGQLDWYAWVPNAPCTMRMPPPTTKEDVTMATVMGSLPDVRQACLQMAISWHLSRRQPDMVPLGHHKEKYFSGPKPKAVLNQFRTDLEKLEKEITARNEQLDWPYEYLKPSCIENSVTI

Biological target: Polyunsaturated fatty acid lipoxygenase ALOX12 (Homo sapiens) (UniProt P18054)
Assay: Primary qHTS assay for inhibitors of human arachidonate 12S-lipoxygenase (ALOX12): Round 2
Conditions: purified 12hLO, xylenol orange hydroperoxide absorbance; series mostly up to 108 µM
In short: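 Purified human 12hLO at 150 nM in 25 mM Hepes, 0.01% Triton X-100, pH 7.0, preincubated 15 min at room temperature with compound. Reaction started with 40 uM arachidonic acid, 30 min at room temperature. Hydroperoxide measured by Fe-xylenol orange, 573/405 nm absorbance ratio.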
Potency means the concentration at half of the fitted maximal effect.

Structure (SMILES)	Potency
CC(=O)c1cccc(NC(=O)NCc2ccc3c(c2)OCO3)c1	inconclusive: 44.7 µM [inhibitor, partial curve, poor fit]
O=C(Nc1cccc(F)c1)C1=Cc2sc3c(c2CS1)CCCC3	inconclusive: 15.8 µM [inhibitor, full curve]
CCOC(=O)c1ccc(NC(=S)N(CCN2CCCCCC2)Cc2ccco2)cc1	inconclusive: 100 µM [inhibitor, partial curve, poor fit]
COc1ccc(CCN2C(=O)/C(=C\c3ccco3)SC2=S)cc1OC	inconclusive: 44.7 µM [inhibitor, partial curve, poor fit]
O=C(O)c1cc(-c2ccc(-c3c(-c4ccc5c(c4)OCO5)noc3-c3ccsc3)cc2)nc2ccccc12	inconclusive: 22.4 µM [inhibitor, partial curve, poor fit]
CCN1C(=O)COc2ccc(-c3nc(NC(=O)c4ccccc4)sc3C)cc21	inconclusive: 89.1 µM [inhibitor, single point]
COc1ccc(-n2c(C)cc(/C=C3\C(=N)N4N=C(CC(=O)N5CCOCC5)SC4=NC3=O)c2C)c(OC)c1	inactive
CCNC(=S)NNC(=O)c1cc(-c2ccc(OC)cc2)nc2ccccc12	inconclusive: 50.1 µM [inhibitor, partial curve, poor fit]
Cc1ccc(-n2cc(C(=O)c3cc(Cl)ccc3O)cc(C#N)c2=O)cc1	inconclusive: 79.4 µM [inhibitor, partial curve, poor fit]
CCOc1ccc(NC(=O)N2CCCC2C(=O)NCc2ccco2)cc1 (stereo unspecified)	inconclusive: 35.5 µM [inhibitor, partial curve, poor fit]
CSc1cccc(NC(=O)c2ccco2)c1	inactive
CC1C(O)CCN(C)C1C (stereo unspecified)	inactive
CC(=O)N1CCC(NC(=O)CSc2ncc(-c3ccccc3)o2)CC1	inactive
Cc1nn(-c2ccccc2)c(C)c1CC(=O)N1CCN(S(=O)(=O)c2ccccc2F)CC1	inactive
Cc1ccc(SC2=C(N(C)C)C(=O)c3ccccc3C2=O)cc1	active: 10 µM
COc1cc2ccccc2cc1C(=O)Nc1ccc(CN2CCOCC2)cc1	inconclusive: 126 µM [inhibitor, partial curve, poor fit]
CC(C)c1nc(SCC(=O)Nc2cccc(C(F)(F)F)c2)c2c(=O)n(C)c(=O)n(C)c2n1	inactive
CCOC(=O)C1CCCN(C(=O)C2CCN(c3nnc(C)c4c(C)n(-c5ccccc5)nc34)CC2)C1 (stereo unspecified)	inactive
O=C(N[C@@H]1CN(C(=O)c2cc(-c3ccc(F)cc3)n[nH]2)CC[C@@H]1CO)C1CC1	inconclusive: 3.55 µM [inhibitor, partial curve, poor fit]
Cc1ccc(NC(=O)Cn2ccn3nc(-c4ccccc4)c(CO)c3c2=O)c(C)c1	inconclusive: 56.2 µM [inhibitor, partial curve, poor fit]
O=C(Cc1ccccc1)N/N=C/c1ccc(OCC(=O)Nc2ccccc2)cc1	inconclusive: 141 µM [inhibitor, partial curve, poor fit]

Structure (SMILES)	Potency
COc1cccc(/C=C/C(=O)OCC(=O)c2ccc3c(c2)NC(=O)CO3)c1	inconclusive: 89.1 µM [inhibitor, single point]
Oc1ccc(-n2cccc2/C=N/n2cnnc2)cc1	inactive
CCCCNc1nc2ccccc2nc1NS(=O)(=O)c1cc(Cl)ccc1Cl	inconclusive: 1.41 µM [inhibitor, full curve, poor fit]
O=C(NCCCn1ccnn1)[C@H]1CNC[C@@H](C(=O)N2CCCC2)C1	inconclusive: 10 µM [inhibitor, full curve, poor fit]
C=CC[C@H](CC(=O)N(CCO)Cc1ccccc1)C(=O)N[C@H](C)COC(=O)[C@@H](CC=C)CC(=O)OC(C)(C)C	inactive
CC(=O)Nc1ccc(Nc2nc3ccccc3nc2NS(=O)(=O)c2ccc(Cl)c([N+](=O)[O-])c2)cc1	inconclusive: 70.8 µM [inhibitor, partial curve, poor fit]
Cc1ccsc1/C=N/Nc1ccc(F)cc1F	active: 39.8 µM
CCOc1ccc(OCCC(=O)OCC(=O)N2CCN(S(=O)(=O)c3ccc(C)cc3)CC2)cc1	inconclusive: 56.2 µM [inhibitor, partial curve, poor fit]
Cc1cc(NC(=O)CCc2ncc(-c3ccccc3Cl)o2)ccc1Br	inconclusive: 0.398 µM [inhibitor, full curve, poor fit]
CCN1CCN(c2oc(COc3ccc(OC)cc3)nc2C#N)CC1	inconclusive: 2.82 µM [inhibitor, full curve]
COc1cc2c(c(OC)c1OC)-c1ccc(OC)c(=O)cc1[C@@H](N(C)CC#CCO)CC2	inactive
NCCC12CC3CC(C1)CC(CCN)(C3)C2	inconclusive: 35.5 µM [inhibitor, single point]
O=S1(=O)CCN2C(c3cccc(Br)c3)=CSC2=N1	active: 22.4 µM
CCCNc1c(NC(=O)Nc2ccc(C)c(C)c2)c(=O)oc2ccccc12	inconclusive: 141 µM [inhibitor, single point]
CCOC(=O)c1scc(-c2ccccc2)c1S(=O)(=O)Nc1ccccc1	inconclusive: 35.5 µM [inhibitor, partial curve, poor fit]
CCNC(=O)NC(=O)C(C)Sc1ccc(F)cc1 (stereo unspecified)	inactive
CCN(CC)C(=O)c1sc2nc(-c3cccs3)cc(-c3cccs3)c2c1N	active: 39.8 µM
Cc1ccccc1CN1CCN(Cc2cc(=O)c3ccccc3[nH]2)CC1CCO (stereo unspecified)	inconclusive: 35.5 µM [inhibitor, partial curve, poor fit]
CCOc1ccc(N=Nc2c(N)[nH][nH]c2=O)cc1	inconclusive: 50.1 µM [inhibitor, partial curve, poor fit]
COc1ccc(CNS(=O)(=O)c2cc(C(=O)Nc3cc(Cl)cc(Cl)c3)ccc2F)cc1	inactive
CCCn1c(CNS(=O)(=O)c2ccc(C)cc2)nc2ccccc21	inactive
CC(=O)c1cccc(Nc2nc3ccccc3nc2NS(=O)(=O)c2ccccc2)c1	inactive

Three entries from above, field by field.
NCCC12CC3CC(C1)CC(CCN)(C3)C2
  Potency: inconclusive: 35.5 µM [inhibitor, single point]
O=S1(=O)CCN2C(c3cccc(Br)c3)=CSC2=N1
  Potency: active: 22.4 µM
CCCNc1c(NC(=O)Nc2ccc(C)c(C)c2)c(=O)oc2ccccc12
  Potency: inconclusive: 141 µM [inhibitor, single point]

Following part:

Structure (SMILES)	Potency
CC(=O)NS(=O)(=O)c1ccc(NC(=O)CSc2ccc(C)cc2)cc1	inconclusive: 35.5 µM [inhibitor, partial curve, poor fit]
Cc1ccc(N2NC(=O)/C(=C\c3cc4c(cc3[N+](=O)[O-])OCO4)C2=O)cc1C	inconclusive: 20 µM [inhibitor, full curve, poor fit]
O=C(OCc1ccccc1)N1CCC2CC1c1ccc(N3CCN(Cc4ccc5c(c4)OCO5)CC3)cc12 (stereo unspecified)	inconclusive: 126 µM [inhibitor, single point]
CCc1cc(=O)n(CC(=O)Nc2cc(Cl)ccc2OC)c(N2CCOCC2)n1	inactive
O=C(Nc1ccc(N2CCCC2)cc1)c1cc(Cl)ccc1Cl	inconclusive: 79.4 µM [inhibitor, partial curve, poor fit]
O=C1CO[C@H]2CN(C3CCC3)C[C@H]2N1c1ccccc1	inconclusive: 50.1 µM [inhibitor, partial curve]
CCN(CC)c1nc(-c2cccs2)cs1	inconclusive: 39.8 µM [inhibitor, partial curve, poor fit]
COc1cccc(N2CC(C(=O)Nc3ccccc3C(=O)N3CCN(c4ccccc4)CC3)CC2=O)c1 (stereo unspecified)	inconclusive: 31.6 µM [inhibitor, partial curve, poor fit]
COc1ccc(CCN(C)CC(O)COC(c2ccc(F)cc2)c2ccc(F)cc2)cc1OC (stereo unspecified)	inconclusive: 126 µM [inhibitor, single point]
Fc1ccc(F)c(CNCCN2CCCC2)c1	inconclusive: 1 µM [inhibitor, full curve]
CCCCCC(=O)N1CC2(CC(c3cccc(NC(=O)[C@@H]4CCC(=O)N4)c3)=NO2)C[C@@H]1C(N)=O (stereo partly specified)	inconclusive: 25.1 µM [inhibitor, partial curve]
COC(=O)Cc1cc(=O)n2[nH]c(NCc3ccc(Cl)cc3)nc2n1	inactive
Cc1ccc(OCCC(=O)OCC(=O)Nc2cc(C)nn2-c2ccccc2)cc1	inactive
Cc1noc(C)c1C(=O)OCC(=O)Nc1cc(Cl)ccc1Oc1ccccc1	inconclusive: 35.5 µM [inhibitor, single point]
CC1(C)CC(=O)C(C2C3=C(CC(C)(C)CC3=O)Oc3c(Br)cc(Br)cc32)=C(O)C1 (stereo unspecified)	inconclusive: 112 µM [inhibitor, single point]
CNC(=O)c1ccc(NC(=O)CC2C=CCC2)cc1 (stereo unspecified)	inactive
Cc1ccc(CNC(=O)c2ccc(Cn3nc(C)cc3C)o2)cc1	inactive
CC12CCC(C(=O)Nc3ccccc3)(CC1=O)C2(C)C (stereo unspecified)	inactive
COc1cc(C(=O)OCCOc2ccc(F)cc2)cc(OC)c1OC	inactive
C#CCn1cc(/C=N/Nc2nc3ccccc3[nH]2)c2ccccc21	inconclusive: 44.7 µM [inhibitor, partial curve, poor fit]
CC(C)c1ccc(NC(=O)N2CCN(S(=O)(=O)c3ccccc3)CC2)cc1	inconclusive: 14.1 µM [inhibitor, full curve, poor fit]
Cc1ccc(SCCn2cc(S(=O)(=O)N3CCCC3)ccc2=O)cc1	inconclusive: 79.4 µM [inhibitor, partial curve, poor fit]
